In PubChem BioAssay AID2685 (National Center for Advancing Translational Sciences (NCATS), 2010):
In all, about 320,000 compounds went through this assay and about 2,100 (0.66%) were called active. This list was built around the results that the source calls inconclusive (neither active nor inactive); the mix of calls is not that of the screen. Calls come from the whole dose curve; as a rule, active = well fitted inhibition curve with a large enough effect in the signal ratio, with a control signal flat (not every such curve was filed as active); inconclusive = small, poorly fitted or top-dose-only effect, or effect the other way, or a change in a side signal; inactive = flat fitted curve, though single readings scatter; the % refers to the signal ratio. Where the call is inconclusive, the potency comes from a doubtful curve fit.

assay: qHTS Assay for Lipid Storage Modulators in Drosophila S3 Cells; conditions: BODIPY lipid droplet fluorescence, 18-24 h, cells fed with added oleic acid; lipid storage change, negative = inhibition: at 46.1 µM (top of the series) unless noted
Summary of the method: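 Laser-scanning cytometry quantifies lipid droplet accumulation (500–530 nm total intensity; droplet/cell object ratio) in oleic acid-fed (400 uM added) Drosophila S3 cells treated with a concentration series. 20 uM Triacsin C defined 100% inhibition.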
% is set by controls: 0 for no effect and ±100 for the full control effect; potency is the fitted concentration of half-maximal effect.

Lipid storage change, negative = inhibition, inconclusive:
COCCCNC(=O)c1cccc(NC(=O)c2ccccc2)c1 21.1%
O=C(CN1C(=O)C(=O)N(C2CCCC2)C1=O)Nc1ccc([N+](=O)[O-])cc1
COc1cccc(CNC(=O)CCS(=O)(=O)c2ccccc2Cl)c1 -2.4%
Cc1c(OCC(=O)NC(Cc2ccc(Cl)cc2)C(=O)O)ccc2c1oc(=O)c1ccccc12 (configuration not stated) -1.99%
N#Cc1nc(COc2ccccc2)oc1N1CCCC1 -22.6%
CSCCC(NS(=O)(=O)c1ccccc1F)C(=O)NCCCn1nc(C)cc1C (configuration not stated) 8.42%
CCC(=O)N/N=C(\C)CC(=O)Nc1ccc2c(c1)OCCO2 -8.11%
CSc1nnc(NC(=O)C2CCCCC2)s1 13.3%
CCCN(CC(=O)Nc1ccccc1C)C(=O)/C=C/c1ccc(OCC)c(OC)c1 21.4%
CC(=O)C1=C(c2ccccc2)NC(=O)NC1c1ccc(O)c(Cl)c1 (configuration not stated) 42%
CCOC(=O)c1cccc(NC(=O)C2CCCN(c3nnc(N4CCCC4=O)s3)C2)c1 (configuration not stated) -33.9%
CC(=O)Nc1ccc(NC(=O)CSc2ccc(C)cc2)cc1 81.8%
COc1cccc(N=C2CC(C)(C)CC(=O)/C2=C(/O)c2ccccc2)c1 -1.15%
O=C(c1cccs1)N1CCN(S(=O)(=O)N2CCOCC2)CC1 -30.9%
COCCn1nnnc1C(c1ccc(Cl)cc1)N1CCN(C(=O)c2ccco2)CC1 (configuration not stated) -4.33%
CC(=O)c1cccc(NC(=O)C2CCN(C(=O)c3ccc([N+](=O)[O-])cc3)CC2)c1 -19.2% [at 9.22 µM]
O=C1/C(=C/c2ccc(Br)cc2)Oc2cc(O)ccc21 -81.9%
CCN(CC)C(=O)CCS(=O)(=O)c1cccc2nonc12 -24.6%
O=[N+]([O-])c1ccc2c(c1)C(N1CCOCC1)/C(=C/COc1ccc(F)cc1)O2 (configuration not stated) 58.4%
O=C(COC(=O)c1ccccc1NC(=O)c1ccccc1)c1ccc([N+](=O)[O-])cc1 -0.779%
O=C(NCc1nnc2c3ccccc3c(-c3ccccc3)nn12)c1ccc(Cl)cc1 70.4%
CC(C)(C)C1CCC2(CC1)NC(CO)(CO)CO2 (configuration not stated) 12.2%
COc1ccc(S(=O)(=O)NNC(N)=S)cc1 -8.08%
COc1ccc(NC(=O)CCNC(=O)Cn2cnc3ccccc3c2=O)cc1OC 40.8%
Cc1cc(C)n(C2CC(=O)N(c3cc(Cl)cc(Cl)c3)C2=O)n1 (configuration not stated) 15.3%
COc1ccccc1[C@@H]1C(c2cccc(C)c2)=NN(c2ccccc2)[C@H]1C(=O)N1CCOC1=O 29.8%
Cc1ccc(Nc2nc(N)c([N+](=O)[O-])c(N3CCOCC3)n2)cc1C -41.2%
COc1ccccc1CCC(=O)OCC(=O)c1c(N)n(CC(C)C)c(=O)n(C)c1=O 8.96%
O=C(CSc1nc2ncccc2[nH]1)Nc1ccc2c(c1)OCO2 -8.24%
Cc1ccc2nc(C(=O)N3CCc4c([nH]c5ccccc45)C3c3ccccn3)cn2c1 (configuration not stated) -13.8%

Potency, inconclusive:
Cc1ccccc1NC(=O)C1CCC(=O)N1 (configuration not stated) 0.58 µM [falling, single point]
COc1ccc(CCC(=O)NC(C)C)cc1 29.1 µM [rising, single point]
Cc1onc(-c2ccccc2)c1C(=O)OCC(=O)Nc1ccc(OC(F)(F)F)cc1 6.51 µM [falling, single point]
Cc1ccc(NC(=O)Nc2nnc(Cc3ccc([N+](=O)[O-])cc3)s2)cc1 5.8 µM [activator, full curve, poor fit]
CCCOc1cccc(C2/C(=C(/O)c3ccc4c(c3)CC(C)O4)C(=O)C(=O)N2CCN2CCOCC2)c1 (configuration not stated) 0.92 µM [activator, full curve, poor fit]
COc1ccc(CC(=O)O/N=C(\N)c2ccc(OC)cc2)cc1 2.06 µM [activator, single point]
CN(CC(=O)NCc1ccccc1Cl)CC(=O)Nc1ccccc1Br 13 µM [activator, partial curve]
Fc1cccc(CNC2CCN(CCc3ccccc3)CC2)c1 0.092 µM [activator, full curve, poor fit]
Cc1ccc(C(=O)/C=C/Nc2ccc(S(=O)(=O)Nc3cc(C)nc(C)n3)cc2)cc1 0.58 µM [activator, full curve, poor fit]
CN(CC/C=C1/c2ccccc2CSc2ccccc21)CCCO 23.1 µM [activator, partial curve]
Cc1ccc(NC(=O)C(C)c2ccc(-c3ccccc3)c(F)c2)c(C)c1 (configuration not stated) 0.0326 µM [activator, full curve, poor fit]
CCCCn1nc(C(=O)NCC2COc3ccccc3O2)c2ccccc2c1=O (configuration not stated) 23.1 µM [falling, single point]
O=c1cc2c(nn1Cc1cccc(Cl)c1)-c1ccccc1CC2 6.51 µM [activator, single point]
COc1ccccc1/C=C/C(=O)OCC(=O)c1c[nH]c2ccccc12 2.06 µM [activator, partial curve, poor fit]
COc1cccc2c1OC1(C)CC2NC(=O)N1 (configuration not stated) 29.1 µM [falling, single point]
CCCOc1cccc(CN2CCCCC2c2cccnc2)c1 (configuration not stated) 0.461 µM [rising, full curve, poor fit]
COc1ccc(CN2C(=O)[C@@H]3C(c4ccccc4Cl)=NO[C@@H]3C2=O)cc1 0.58 µM [activator, full curve]

Not a retest: entries from further up.
Potency, inconclusive:
CCCCn1nc(C(=O)NCC2COc3ccccc3O2)c2ccccc2c1=O (configuration not stated) 23.1 µM [falling, single point]
O=c1cc2c(nn1Cc1cccc(Cl)c1)-c1ccccc1CC2 6.51 µM [activator, single point]
